Source: article PMC13185310, “A versatile nanobody platform for live and super-resolution imaging of synaptic vesicle dynamics and plasticity in rodent and human neurons” (Journal of Nanobiotechnology, 2026)
Results are given in words; binding and its absence hold for the method and conditions named. In cells and extracts the contact can be indirect. A yes stands for co-enrichment or nearness to the bait. Other partners may have been found.

By UniProt entry, the sequences of proteins in these tests, tags left out.
UniProt P21707: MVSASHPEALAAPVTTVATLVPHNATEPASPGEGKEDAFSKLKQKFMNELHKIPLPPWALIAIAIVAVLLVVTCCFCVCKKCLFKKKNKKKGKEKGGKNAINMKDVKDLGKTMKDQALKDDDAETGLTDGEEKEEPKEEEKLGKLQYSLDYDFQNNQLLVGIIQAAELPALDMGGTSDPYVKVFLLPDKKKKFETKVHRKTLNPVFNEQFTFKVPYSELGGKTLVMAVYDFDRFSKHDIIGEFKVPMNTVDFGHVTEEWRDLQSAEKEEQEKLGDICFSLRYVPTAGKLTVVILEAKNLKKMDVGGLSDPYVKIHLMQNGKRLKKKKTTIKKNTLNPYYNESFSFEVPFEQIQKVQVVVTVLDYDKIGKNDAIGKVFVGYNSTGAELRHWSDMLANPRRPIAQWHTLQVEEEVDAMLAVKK

Target: endogenous Synaptotagmin 1 of primary hippocampal neurons (proximity labelling and PLA) (rat (endogenous in primary hippocampal neurons)) (UniProt P21707)
Assay: proximity labelling; proteins biotinylated near Syt1 through NbLumSyt1-APEX2 bound on live primary neurons; streptavidin beads, LC-MS/MS; hits enriched against input and against control IPs

B1: ciliary neurotrophic factor receptor (Cntfr) (receptor, UniProt Q08406 23-342)
chain: QKHSPQEAPHVQYERLGTDVTLPCGTASWDAAVTWRVNGTDLAPDLLNGSQLILRSLELGHSGLYACFHRDSWHLRHQVLLHVGLPPREPVLSCRSNTYPKGFYCSWHLSAPTYIPNTFNVTVLHGSKMMVCEKDPALKNRCHIRYMHLFSTIKYKVSISVSNALGHNTTAITFDEFTIVKPDPPENVVARPVPSNPRRLEVTWQTPSTWPDPESFPLKFFLRYRPLILDQWQHVELSNGTAHTITDAYAGKEYIIQVAAKDNEIGTWSDWSVAAHATPWTEEPRHLTTEAQAPETTTSTTSSLAPPPTTKICDPGELSS
binding: binds
